Source: paper PMC3469465, “Muscle-Specific Splicing Factors ASD-2 and SUP-12 Cooperatively Switch Alternative Pre-mRNA Processing Patterns of the ADF/Cofilin Gene in Caenorhabditis elegans”
The exact form of at least one protein or probe is not confirmed. The comparison behind a weaker result is the experiment's own reference, which may not be listed here.

Tested on: GST-ASD-2b + His-SUP-12
Assay: pull-down
Settings: 20 mM HEPES-KOH pH 7.9, 150 mM KCl, 5% glycerol (EMSA only), 1% Triton X-100, 1 mM DTT, 0.1 mM PMSF, 100 ng/ul E. coli tRNA, 50 ng/ul BSA, 30 min, 20 C, recombinant protein
[1] = RNA less effectively enhances ASD-2b/SUP-12 pull-down

Row | Sequence | binding result [1] | binding result (RNA enhances SUP-12 pull-down by GST-ASD-2b dose-dependently)
1 | UUUUUGCCAAACCAAACCAAACCUAUGUGUGCCUGUUUU [unc-60-I1A-M1] | binds more weakly | –
2 | UUUUUGCCUAACCUAACCUAACCUAUAUAUACCUGUUUU [unc-60-I1A-M2] | binds more weakly | –
3 | UUUUUGCCUAACCUAACCUAACCUAUGUGUGCCUGUUUU [unc-60-I1A-WT] | – | binds
